The results in this text go back to PMC7290672.

Sequences of proteins named here, by UniProt entry; tags and fusion partners are left off. A change or cut given only in a name is not applied to a line headed by its entry. A line that says so, or that is headed by a name, gives the form on record, which may keep a tag or linker.
UniProt Q01094: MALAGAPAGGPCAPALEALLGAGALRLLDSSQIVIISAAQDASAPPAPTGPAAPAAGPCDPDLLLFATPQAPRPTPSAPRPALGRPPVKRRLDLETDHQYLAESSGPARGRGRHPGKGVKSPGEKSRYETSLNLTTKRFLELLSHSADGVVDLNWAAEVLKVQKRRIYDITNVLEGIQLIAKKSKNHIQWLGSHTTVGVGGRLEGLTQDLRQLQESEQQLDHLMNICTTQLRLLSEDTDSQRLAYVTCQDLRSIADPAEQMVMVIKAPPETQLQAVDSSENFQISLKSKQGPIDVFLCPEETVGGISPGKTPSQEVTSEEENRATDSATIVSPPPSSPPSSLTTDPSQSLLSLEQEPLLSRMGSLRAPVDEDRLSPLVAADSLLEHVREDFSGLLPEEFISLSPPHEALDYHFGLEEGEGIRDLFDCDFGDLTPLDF
UniProt P10275: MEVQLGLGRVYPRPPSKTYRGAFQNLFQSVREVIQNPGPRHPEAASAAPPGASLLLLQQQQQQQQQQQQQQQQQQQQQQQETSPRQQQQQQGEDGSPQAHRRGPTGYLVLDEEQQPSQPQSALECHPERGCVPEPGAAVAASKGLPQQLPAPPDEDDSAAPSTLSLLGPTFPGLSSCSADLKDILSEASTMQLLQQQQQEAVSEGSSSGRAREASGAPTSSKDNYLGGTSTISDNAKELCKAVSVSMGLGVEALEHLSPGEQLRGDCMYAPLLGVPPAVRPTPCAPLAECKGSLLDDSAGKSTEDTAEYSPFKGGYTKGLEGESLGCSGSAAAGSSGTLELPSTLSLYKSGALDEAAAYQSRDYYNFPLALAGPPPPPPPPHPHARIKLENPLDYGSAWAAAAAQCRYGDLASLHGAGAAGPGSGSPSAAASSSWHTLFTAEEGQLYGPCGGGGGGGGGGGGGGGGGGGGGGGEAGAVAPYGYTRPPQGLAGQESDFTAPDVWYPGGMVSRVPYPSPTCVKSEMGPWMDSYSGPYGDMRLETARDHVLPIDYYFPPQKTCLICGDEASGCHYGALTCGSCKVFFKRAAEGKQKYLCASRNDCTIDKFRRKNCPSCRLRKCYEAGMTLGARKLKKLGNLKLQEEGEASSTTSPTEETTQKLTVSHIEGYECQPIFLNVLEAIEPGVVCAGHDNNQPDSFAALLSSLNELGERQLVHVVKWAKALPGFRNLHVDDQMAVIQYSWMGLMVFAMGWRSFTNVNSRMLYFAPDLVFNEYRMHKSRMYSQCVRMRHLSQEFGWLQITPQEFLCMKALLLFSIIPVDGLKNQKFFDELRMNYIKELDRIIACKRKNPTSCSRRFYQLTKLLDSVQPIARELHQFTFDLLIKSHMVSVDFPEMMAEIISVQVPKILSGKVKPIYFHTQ
AR3 overexpressed in HEK293T cells (P10275-3, form named): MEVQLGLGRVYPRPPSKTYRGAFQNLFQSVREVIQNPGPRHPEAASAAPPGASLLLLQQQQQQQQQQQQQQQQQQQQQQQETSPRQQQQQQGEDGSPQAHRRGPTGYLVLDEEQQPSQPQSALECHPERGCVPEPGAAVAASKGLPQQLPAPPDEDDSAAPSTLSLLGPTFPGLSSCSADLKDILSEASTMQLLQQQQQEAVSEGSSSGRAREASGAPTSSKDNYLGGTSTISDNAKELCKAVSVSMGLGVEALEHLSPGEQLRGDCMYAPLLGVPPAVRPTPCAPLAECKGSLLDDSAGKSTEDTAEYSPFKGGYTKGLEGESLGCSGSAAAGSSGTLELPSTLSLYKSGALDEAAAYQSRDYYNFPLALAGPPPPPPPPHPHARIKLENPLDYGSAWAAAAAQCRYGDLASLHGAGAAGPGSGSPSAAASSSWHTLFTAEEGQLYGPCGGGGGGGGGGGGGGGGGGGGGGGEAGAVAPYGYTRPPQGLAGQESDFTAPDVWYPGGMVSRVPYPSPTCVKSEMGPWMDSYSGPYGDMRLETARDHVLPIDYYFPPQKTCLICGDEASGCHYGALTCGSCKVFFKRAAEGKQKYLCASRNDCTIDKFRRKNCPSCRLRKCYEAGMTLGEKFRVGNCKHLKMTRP

Results are given in words; binding and its absence hold for the method and conditions named. In cells and extracts the contact can be indirect. Some entries that bind do so weakly or less than the wild type.

The target in test [1] is E2F1, endogenous in R1-ADR cells (human (endogenous in R1-ADR)) (UniProt Q01094). Nature of the test: co-IP; endogenous proteins in R1-ADR cell lysates; cells infected with lentivirus encoding control shRNA, shAR3 or shAR-FL for 48 h; immunoprecipitated with an anti-AR or anti-E2F1 antibody, western blot.
Test [2] addresses T1, Rb, endogenous in R1-ADR cells (human (endogenous in R1-ADR)) (UniProt P06400).
T1 sequence: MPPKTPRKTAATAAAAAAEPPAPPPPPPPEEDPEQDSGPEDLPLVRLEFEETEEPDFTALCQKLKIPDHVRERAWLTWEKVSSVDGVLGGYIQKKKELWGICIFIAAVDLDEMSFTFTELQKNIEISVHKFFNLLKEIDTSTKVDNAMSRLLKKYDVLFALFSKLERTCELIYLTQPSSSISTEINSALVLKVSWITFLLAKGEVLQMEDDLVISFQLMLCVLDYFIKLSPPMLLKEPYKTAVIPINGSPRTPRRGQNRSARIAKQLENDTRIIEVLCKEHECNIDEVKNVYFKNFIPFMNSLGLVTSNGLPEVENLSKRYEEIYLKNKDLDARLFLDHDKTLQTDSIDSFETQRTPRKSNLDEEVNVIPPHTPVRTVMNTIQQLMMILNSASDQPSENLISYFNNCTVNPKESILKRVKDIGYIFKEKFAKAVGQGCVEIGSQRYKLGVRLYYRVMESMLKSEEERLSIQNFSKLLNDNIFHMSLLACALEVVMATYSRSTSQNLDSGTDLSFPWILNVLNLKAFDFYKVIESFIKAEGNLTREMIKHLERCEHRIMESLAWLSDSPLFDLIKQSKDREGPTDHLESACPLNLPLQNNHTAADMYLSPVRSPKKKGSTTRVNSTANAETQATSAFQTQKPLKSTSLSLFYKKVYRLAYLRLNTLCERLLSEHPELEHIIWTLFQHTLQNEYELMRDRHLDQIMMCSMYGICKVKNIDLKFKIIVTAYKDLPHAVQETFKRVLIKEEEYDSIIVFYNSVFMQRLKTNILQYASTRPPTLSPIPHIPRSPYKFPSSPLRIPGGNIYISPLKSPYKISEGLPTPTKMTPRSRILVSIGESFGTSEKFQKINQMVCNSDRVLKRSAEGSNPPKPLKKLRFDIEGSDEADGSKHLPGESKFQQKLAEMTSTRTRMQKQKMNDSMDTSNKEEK
Nature of the test: co-IP; endogenous proteins in R1-ADR cell lysates; cells infected with lentivirus encoding control shRNA, shAR3 or shAR-FL for 48 h, then treated with 10nM DHT for 2 h; immunoprecipitated with an anti-AR or anti-Rb antibody, western blot. On the technique in general: In western blotting, separated proteins are transferred to a membrane and probed.

Test [3] concerns the target E2F1-HA overexpressed in HEK293T cells (pCMVHA E2F1) (UniProt Q01094). Nature of the test: co-IP; HEK293T cells cotransfected with AR-FL, AR3 and/or E2F1-HA, grown 48 h; lysates immunoprecipitated with an anti-AR or anti-HA antibody, western blot.

For the substance “androgen receptor splicing variant AR3 (a.k.a. AR-V7), endogenous in R1-ADR cells (from UniProt P10275-3 1-644)”, the binding entry is reported as “binds” in test [1] and “no binding” in test [2].

For the substance “androgen receptor full length (AR-FL), endogenous in R1-ADR cells (from UniProt P10275 1-920)”, the binding result in test [1] and in test [2] was “binds” in each case.

Consider “AR3 overexpressed in HEK293T cells (from UniProt P10275-3 1-644)”, for which the binding entry in test [3] is “binds”.

For “AR-FL overexpressed in HEK293T cells (from UniProt P10275 1-920)”, the binding result in test [3] was “binds”.
